Laboratory results taken from the supplement of paper PMC7661543.
Differences between knockout arms are mostly noise.

System: HCC-38
Experiment: relative cell number vs DMSO control (72 h) (% of DMSO); higher = less growth inhibition (more cells)
Procedure: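 QMAP-Seq: a pool of 5 breast cancer cell lines (ZR-75-1, SKBR3, HCC-38, MDA-MB-231, BT-20), each carrying 12 doxycycline-inducible Cas9 sgRNA perturbations (11 knockouts plus non-targeting sgNT), was treated with compounds for 72 h at four 10-fold doses (10 nM-10 uM or 1 nM-1 uM range). Barcodes were amplified and sequenced, and cell number was interpolated from 293T spike-in standard curves. The result is expressed as % of the median of DMSO wells. Two biological replicates.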

Cc1ccc(NC(=O)c2ccc(CN3CCN(C)CC3)cc2)cc1Nc1nc(-c2cccnc2)cs1 [Masitinib]
Conditions	relative cell number
sgRNA knockout: sgATF3, 10 nM	99.6
sgRNA knockout: sgATF3, 100 nM	85.4
sgRNA knockout: sgATF3, 1000 nM	83.9
sgRNA knockout: sgATF3, 10000 nM	95
sgRNA knockout: sgATF4, 10 nM	90.5
sgRNA knockout: sgATF4, 100 nM	80.2
sgRNA knockout: sgATF4, 1000 nM	91.4
sgRNA knockout: sgATF4, 10000 nM	95.4
sgRNA knockout: sgATF6, 10 nM	97.2
sgRNA knockout: sgATF6, 100 nM	85.8
sgRNA knockout: sgATF6, 1000 nM	91.6
sgRNA knockout: sgATF6, 10000 nM	92.5
sgRNA knockout: sgATG7, 10 nM	101
sgRNA knockout: sgATG7, 100 nM	90.6
sgRNA knockout: sgATG7, 1000 nM	86.1
sgRNA knockout: sgATG7, 10000 nM	93.86
sgRNA knockout: sgERN1, 10 nM	109
sgRNA knockout: sgERN1, 100 nM	90.7
sgRNA knockout: sgERN1, 1000 nM	89.8
sgRNA knockout: sgERN1, 10000 nM	104
sgRNA knockout: sgHSF1, 10 nM	121
sgRNA knockout: sgHSF1, 100 nM	97.7
sgRNA knockout: sgHSF1, 1000 nM	81.81
sgRNA knockout: sgHSF1, 10000 nM	80
sgRNA knockout: sgHSF2, 10 nM	99.17
sgRNA knockout: sgHSF2, 100 nM	83
sgRNA knockout: sgHSF2, 1000 nM	89.9
sgRNA knockout: sgHSF2, 10000 nM	113
sgRNA knockout: sgKEAP1, 10 nM	101
sgRNA knockout: sgKEAP1, 100 nM	110
sgRNA knockout: sgKEAP1, 1000 nM	89.6
sgRNA knockout: sgKEAP1, 10000 nM	87.5
sgRNA knockout: sgNFE2L2, 10 nM	103
sgRNA knockout: sgNFE2L2, 100 nM	76.2
sgRNA knockout: sgNFE2L2, 1000 nM	80.6
sgRNA knockout: sgNFE2L2, 10000 nM	95.9
sgRNA knockout: sgSLC35F2, 10 nM	105
sgRNA knockout: sgSLC35F2, 100 nM	81.6
sgRNA knockout: sgSLC35F2, 1000 nM	85.5
sgRNA knockout: sgSLC35F2, 10000 nM	90.3
sgRNA knockout: sgXBP1, 10 nM	96.5
sgRNA knockout: sgXBP1, 100 nM	80
sgRNA knockout: sgXBP1, 1000 nM	83.7
sgRNA knockout: sgXBP1, 10000 nM	105

O=c1[nH]cc(F)c(=O)[nH]1 [5-Fluorouracil]
Conditions	relative cell number
sgRNA knockout: sgATF3, 10 nM	93.2
sgRNA knockout: sgATF3, 100 nM	112
sgRNA knockout: sgATF3, 1000 nM	97.8
sgRNA knockout: sgATF3, 10000 nM	67
sgRNA knockout: sgATF4, 10 nM	97.3
sgRNA knockout: sgATF4, 100 nM	110
sgRNA knockout: sgATF4, 1000 nM	107
sgRNA knockout: sgATF4, 10000 nM	68.2
sgRNA knockout: sgATF6, 10 nM	100
sgRNA knockout: sgATF6, 100 nM	116
sgRNA knockout: sgATF6, 1000 nM	114.4
sgRNA knockout: sgATF6, 10000 nM	69.6
sgRNA knockout: sgATG7, 10 nM	97.8
sgRNA knockout: sgATG7, 100 nM	103
sgRNA knockout: sgATG7, 1000 nM	110
sgRNA knockout: sgATG7, 10000 nM	68.2
sgRNA knockout: sgERN1, 10 nM	91.6
sgRNA knockout: sgERN1, 100 nM	116
sgRNA knockout: sgERN1, 1000 nM	95.7
sgRNA knockout: sgERN1, 10000 nM	61.2
sgRNA knockout: sgHSF1, 10 nM	97.8
sgRNA knockout: sgHSF1, 100 nM	93.2
sgRNA knockout: sgHSF1, 1000 nM	102
sgRNA knockout: sgHSF1, 10000 nM	71.04
sgRNA knockout: sgHSF2, 10 nM	98.1
sgRNA knockout: sgHSF2, 100 nM	109
sgRNA knockout: sgHSF2, 1000 nM	112
sgRNA knockout: sgHSF2, 10000 nM	74
sgRNA knockout: sgKEAP1, 10 nM	116
sgRNA knockout: sgKEAP1, 100 nM	113
sgRNA knockout: sgKEAP1, 1000 nM	103
sgRNA knockout: sgKEAP1, 10000 nM	81
sgRNA knockout: sgNFE2L2, 10 nM	92.5
sgRNA knockout: sgNFE2L2, 100 nM	110
sgRNA knockout: sgNFE2L2, 1000 nM	113
sgRNA knockout: sgNFE2L2, 10000 nM	68
sgRNA knockout: sgSLC35F2, 10 nM	91.2
sgRNA knockout: sgSLC35F2, 100 nM	113
sgRNA knockout: sgSLC35F2, 1000 nM	117
sgRNA knockout: sgSLC35F2, 10000 nM	61.2
sgRNA knockout: sgXBP1, 10 nM	97.1
sgRNA knockout: sgXBP1, 100 nM	118
sgRNA knockout: sgXBP1, 1000 nM	109
sgRNA knockout: sgXBP1, 10000 nM	69.9

O=C(NOCC(O)CO)c1cc(Br)c(F)c(F)c1Nc1ccc(I)cc1F (configuration not stated)
Conditions	relative cell number
sgRNA knockout: sgATF3, 10 nM	99.5
sgRNA knockout: sgATF3, 100 nM	84.5
sgRNA knockout: sgATF3, 1000 nM	88.7
sgRNA knockout: sgATF3, 10000 nM	85.8
sgRNA knockout: sgATF4, 10 nM	91
sgRNA knockout: sgATF4, 100 nM	80.1
sgRNA knockout: sgATF4, 1000 nM	76.2
sgRNA knockout: sgATF4, 10000 nM	89.4
sgRNA knockout: sgATF6, 10 nM	110
sgRNA knockout: sgATF6, 100 nM	93.2
sgRNA knockout: sgATF6, 1000 nM	88.1
sgRNA knockout: sgATF6, 10000 nM	93.8
sgRNA knockout: sgATG7, 10 nM	93.2
sgRNA knockout: sgATG7, 100 nM	81.5
sgRNA knockout: sgATG7, 1000 nM	83.1
sgRNA knockout: sgATG7, 10000 nM	89.8
sgRNA knockout: sgERN1, 10 nM	105
sgRNA knockout: sgERN1, 100 nM	85.6
sgRNA knockout: sgERN1, 1000 nM	84.1
sgRNA knockout: sgERN1, 10000 nM	91.3
sgRNA knockout: sgHSF1, 10 nM	116
sgRNA knockout: sgHSF1, 100 nM	97.8
sgRNA knockout: sgHSF1, 1000 nM	92.9
sgRNA knockout: sgHSF1, 10000 nM	90.7
sgRNA knockout: sgHSF2, 10 nM	106
sgRNA knockout: sgHSF2, 100 nM	87.3
sgRNA knockout: sgHSF2, 1000 nM	82.3
sgRNA knockout: sgHSF2, 10000 nM	93.2
sgRNA knockout: sgKEAP1, 10 nM	121
sgRNA knockout: sgKEAP1, 100 nM	99.7
sgRNA knockout: sgKEAP1, 1000 nM	91.6
sgRNA knockout: sgKEAP1, 10000 nM	98.6
sgRNA knockout: sgNFE2L2, 10 nM	93.2
sgRNA knockout: sgNFE2L2, 100 nM	75.5
sgRNA knockout: sgNFE2L2, 1000 nM	75.6
sgRNA knockout: sgNFE2L2, 10000 nM	85.7
sgRNA knockout: sgSLC35F2, 10 nM	94.6
sgRNA knockout: sgSLC35F2, 100 nM	72.6
sgRNA knockout: sgSLC35F2, 1000 nM	72.4
sgRNA knockout: sgSLC35F2, 10000 nM	92.6
sgRNA knockout: sgXBP1, 10 nM	85.7
sgRNA knockout: sgXBP1, 100 nM	83.1
sgRNA knockout: sgXBP1, 1000 nM	89.3
sgRNA knockout: sgXBP1, 10000 nM	91.4
